Test results from patent US7807396B2, “Insulin degrading enzyme assays for treatment of alzheimer's disease” (University of Kentucky Research Foundation, priority 2000, dated 2010).
At least one compound was matched to its structure with a doubt left. Ends that are not written are not given here.

Chains of the proteins cited; added tags and fusions are not shown.
UniProt P35559, whole entry: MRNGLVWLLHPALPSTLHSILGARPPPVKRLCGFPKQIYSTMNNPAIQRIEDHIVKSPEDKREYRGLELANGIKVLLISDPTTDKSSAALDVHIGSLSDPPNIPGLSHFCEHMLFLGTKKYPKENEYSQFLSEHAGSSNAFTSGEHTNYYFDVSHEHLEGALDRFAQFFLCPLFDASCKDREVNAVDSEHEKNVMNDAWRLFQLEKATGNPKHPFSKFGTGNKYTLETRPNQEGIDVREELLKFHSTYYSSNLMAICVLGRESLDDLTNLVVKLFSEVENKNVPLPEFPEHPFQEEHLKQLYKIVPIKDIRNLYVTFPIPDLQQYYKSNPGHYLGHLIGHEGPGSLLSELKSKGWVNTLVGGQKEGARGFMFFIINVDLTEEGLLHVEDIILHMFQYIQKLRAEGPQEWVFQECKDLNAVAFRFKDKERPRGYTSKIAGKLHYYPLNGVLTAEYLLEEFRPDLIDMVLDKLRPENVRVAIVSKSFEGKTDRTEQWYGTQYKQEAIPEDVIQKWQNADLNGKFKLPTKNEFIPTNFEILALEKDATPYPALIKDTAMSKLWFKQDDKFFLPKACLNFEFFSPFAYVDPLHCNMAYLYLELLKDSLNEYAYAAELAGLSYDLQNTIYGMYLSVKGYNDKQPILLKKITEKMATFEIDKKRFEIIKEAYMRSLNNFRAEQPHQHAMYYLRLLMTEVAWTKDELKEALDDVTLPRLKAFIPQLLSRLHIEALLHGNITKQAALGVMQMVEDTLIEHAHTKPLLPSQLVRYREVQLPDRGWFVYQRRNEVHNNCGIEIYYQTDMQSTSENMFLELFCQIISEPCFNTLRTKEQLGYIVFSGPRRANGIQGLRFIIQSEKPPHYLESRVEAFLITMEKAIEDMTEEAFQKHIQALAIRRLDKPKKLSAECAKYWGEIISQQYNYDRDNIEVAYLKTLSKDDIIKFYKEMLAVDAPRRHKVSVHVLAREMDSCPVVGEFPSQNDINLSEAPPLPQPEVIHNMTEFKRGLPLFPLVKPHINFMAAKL

Target: T1, insulysin (Rattus norvegicus, UniProt P35559)
T1 construct: His6 (N); made in house; host or cells: Sf9 cells, baculovirus (pFASTBAC)
Test: Insulysin activity with fluorogenic peptide Abz-[…]-EDDnp
Format: biochemical
Settings: increasing concentrations of the peptide
Experimental: Referring to FIG. 16, the effect of increasing the concentration of the peptide dynorphin B-9 on insulysin activity is shown. Insulysin activity was measured with the fluorogenic peptide Abz-[…]-EDDnp (SEQ ID No: 14) in the presence of increasing concentrations of the peptide. This peptide contains the fluorescent […] (Abz) which is internally quenched by the 2,4-dinitrophenyl moiety.
Referring to FIG. 17, the effect of increasing the concentration of several different peptides on insulysin activity is summarized. Insulysin activity was measured with the fluorogenic peptide Abz-[…]-EDDnp (SEQ ID NO: 14) in the presence of increasing concentrations of the peptide.

For RPPGFSPFR [bradykinin], the “effect on insulysin activity” value was “increase insulysin enzymatic activity”.
